Data as given in the supplement of paper PMC12889115.
The other results are listed elsewhere or left out. These are raw signals, not scaled to a control.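 Primary screen: polymyxin B was added at a level permeabilizing Salmonella outer membranes while sparing inner membranes. DMSO wells, both with and without polymyxin B, established maximum growth. Plate-to-plate variation meant each plate was ranked on its own, and the lowest-OD600 compounds were selected as hits.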

Test system: Salmonella enterica serovar Typhimurium SL1344
Assay: bacterial growth OD600 after 18 h with compound and polymyxin B; higher = more bacterial growth (less inhibition)
Details: 50 µM, Mueller-Hinton broth

SMILES | bacterial growth OD600 (polymyxin B 1 µg/mL) | bacterial growth OD600 (polymyxin B 0.75 µg/mL)
COCCC(=O)NCc1cccnc1Oc1ccccc1 | 0.974 | 
COCCN1CCN(Cc2cn(-c3ccccc3)nc2-c2cccc(OC)c2)CC1 | 0.918 | 
Cc1oc(-c2ccc(C(F)(F)F)cc2)nc1CN1CCSCC1 | 0.658 | 
Cc1nc(N2CCCCCCC2)ncc1C(C)NCc1ccco1 (stereo not drawn) |  | 0.611
CN1N=C(C(=O)NCc2cccnc2N(C)Cc2ccccc2)CCC1=O |  | 0.677
O=C(NCc1cccc(Cl)c1)C1CCC(=O)N(CCCN2CCOCC2)C1 (stereo not drawn) | 0.963 | 
CC(C)(C)CN1CCCC2(CCN(C(=O)CSc3ccccc3)C2)C1=O (stereo not drawn) | 0.926 | 
CC(C)C(NC(=O)c1ccccn1)c1nnc2n1CCN(C(=O)CCC(F)(F)F)CC2 (stereo not drawn) |  | 0.889
CCCN(Cc1nc(-c2ccc(OC)c(C)c2OC)oc1C)CC1CCCO1 (stereo not drawn) |  | 0.728
Cc1ccccc1Oc1ncccc1CNCc1cccn1-c1cccnc1 | 0.849 | 
CN(CC1(O)CCCN(Cc2ccc(F)cc2)C1=O)C1CCOCC1 (stereo not drawn) | 0.957 | 
COc1ccc(OC)c(CNC2COc3c(cccc3OC)C2)c1 (stereo not drawn) |  | 0.829
COC(=O)c1c(S(=O)(=O)Nc2ccc(C)cc2)sc2c1CCN(C(=O)CC1CCCC1)C2 |  | 0.005
C=CCNC(=O)N1CCCC1C(=O)Nc1ccccc1-c1ccc(OC)cc1 (stereo not drawn) |  | 0.823
CN(Cc1cccc(-n2cccn2)c1)Cc1nc(-c2cccc(Cl)c2)no1 | 0.807 | 
Cc1cccnc1-c1cccc2c1OC(CNC(=O)CCC(C)C)C2 (stereo not drawn) |  | 0.824
CCOC(=O)C1(Cc2ccc(Cl)cc2)CCN(C(=O)c2cccc(OC)c2)CC1 | 0.125 | 

SMILES | bacterial growth OD600 (polymyxin B 1 µg/mL) | bacterial growth OD600 (polymyxin B 0.75 µg/mL)
COC(=O)c1cccc(C(=O)N2CCc3onc(-c4ccccc4F)c3C2)c1 |  | 0.447
Cc1csc(C(C)N(C)C(=O)c2csc3nc(-c4ccccc4)cn23)n1 (stereo not drawn) | 0.903 | 
CC#CCN1C(=O)NC(CCc2ccccc2)(C2CCN(C/C=C/C(C)C)CC2)C1=O (stereo not drawn) |  | 0.851
O=C(Cc1ccc2c(c1)OCO2)N(Cc1ccncc1)Cc1cccc(OCCc2ccc(F)cc2)c1 |  | -0.004
COc1cc(CN2CCN(Cc3ccc(C)cc3)C(CCO)C2)ccc1F (stereo not drawn) | 0.81 | 
CCNC(=O)N1CCCC1C(=O)Nc1cccc(-n2cccn2)c1 (stereo not drawn) | 0.913 | 
CN(C)C(=O)CCC(=O)N1CCc2onc(-c3ccc(Cl)cc3)c2C1 |  | 0.822
COc1ccc(NC(=O)CCC2CCCN(C(=O)CCn3cncn3)C2)cc1Cl (stereo not drawn) | 0.99 | 
Cc1nc(CCNC(=O)c2coc(Cn3cnc4ccccc43)n2)sc1C | 1.27 | 
O=C(c1nccc2ccccc12)N1CCCC(Nc2ccccc2)C1 (stereo not drawn) | 1.31 | 
CCOc1ccccc1CN1CCC(n2nccc2NC(=O)c2ccccc2)CC1 | 0.807 | 
COc1ccc(NC(=O)CCC2CCCN(C(=O)CCc3scnc3C)C2)cc1Cl (stereo not drawn) | 0.933 | 
CCN(CC)C1CCN(C(=O)c2csc3nc(-c4ccccc4Cl)cn23)C1 (stereo not drawn) | 0.834 | 
CCCn1c(C)c(CC(=O)N2CCC[C@H]2CO)c2c1CC(C)(C)CC2=O |  | 0.824
COc1ccc(CN(Cc2ccncc2)C(=O)c2ccc(-c3cccc(F)c3)cc2)cc1OC1CCCC1 |  | 0.024
CC1(C)C[C@@H]2C[C@@](C)(CN2C(=O)c2coc(COc3ccccc3)n2)C1 | 0.058 | 

As entered above:
Value of CCCN(Cc1nc(-c2ccc(OC)c(C)c2OC)oc1C)CC1CCCO1 (stereo not drawn) under bacterial growth OD600 (polymyxin B 0.75 µg/mL): 0.728
Value of Cc1nc(N2CCCCCCC2)ncc1C(C)NCc1ccco1 (stereo not drawn) under bacterial growth OD600 (polymyxin B 0.75 µg/mL): 0.611
